Test results taken from PubChem BioAssay AID250 (DTP/NCI, 2004).
The list is a part of this screen's results and no random one: it is rich in T/C values a quarter to a half above the control, in often repeated tests (any T/C) and in doses without a T/C. Other doses and runs of a compound stand elsewhere. T/C gives the treated animals as a percentage of the vehicle group. Some entries give survivors of the animals treated and no T/C: the source files T/C as zero there, which appears to mark a toxic dose or a test without result, not a measured value. Some doses without a T/C left all or most animals alive at the check, yet need not have been tolerated: survival well below the control is almost never listed, so the zero probably covers shortened survival too. Survivors were counted at the toxicity check, usually on the fifth day, unless a day is given; later deaths do not show. Schedules are NCI's codes, read here as Q, the interval in days (D) or hours (H), X, the number of doses. For survival time, the PubChem record calls one and a half times the control and up active, and a quarter to a half above the control has no call in these data; cut-offs in other NCI protocols can differ. Some doses were run more than once; their values stand side by side, smallest first. Counts like (3×) say how often a value occurs here. Some schedule codes hold Z or #, which are not explained here. Some T/C values carry the count of animals alive at the toxicity check (mostly the fifth day); without a count, all were alive then.

Test system: BDF1 mice, L1210 leukemia sc, survival T/C
Assay: NCI In Vivo Anticancer Drug Screen. Data for tumor model L1210 Leukemia (subcutaneous) in B6D2F1 (BDF1) mice
Conditions: vehicle: saline, higher T/C = longer survival
Summary of the method: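 Expressed as T/C: measurement in compound-treated, tumor-bearing mice relative to vehicle-treated control mice, based on survival or tumor size.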

Compound: O=P1(N(CCCl)CCCl)NCCCO1 (stereo not given)
- survivor count (T/C endpoint: mean survival time, dose: 400.0 mg/kg/injection, schedule: Q01DX001 (ip)): 6 of 6
- survivor count (T/C endpoint: mean survival time, dose: 1120.0 mg/kg/injection, schedule: Q01DX001 (ip)): 6 of 6
- T/C (T/C endpoint: median survival time, dose: 14.0 mg/kg/injection, schedule: Q01DX Z (sc), run until all animals had died): 100, 116, 200 % of control
- T/C (T/C endpoint: median survival time, dose: 23.0 mg/kg/injection, schedule: Q01DX Z (sc), evaluated on day 34): 256 % of control
- T/C (T/C endpoint: median survival time, dose: 23.0 mg/kg/injection, schedule: Q01DX Z (sc), evaluated on day 36): 178 % of control
- T/C (T/C endpoint: median survival time, dose: 23.0 mg/kg/injection, schedule: Q01DX Z (sc), evaluated on day 40): 210 % of control
- T/C (T/C endpoint: median survival time, dose: 23.0 mg/kg/injection, schedule: Q01DX Z (sc), evaluated on day 60): 181 % of control
- T/C (T/C endpoint: median survival time, dose: 23.0 mg/kg/injection, schedule: Q01DX Z (sc), run until all animals had died): 160, 166 [9 of 10 alive], 210, 238, 294 % of control
- T/C (T/C endpoint: median survival time, dose: 39.0 mg/kg/injection, schedule: Q01DX Z (sc), evaluated on day 34): 275 and 300 % of control
- T/C (T/C endpoint: median survival time, dose: 39.0 mg/kg/injection, schedule: Q01DX Z (sc), evaluated on day 36): 221 % of control
- T/C (T/C endpoint: median survival time, dose: 39.0 mg/kg/injection, schedule: Q01DX Z (sc), evaluated on day 40): 270 % of control
- T/C (T/C endpoint: median survival time, dose: 39.0 mg/kg/injection, schedule: Q01DX Z (sc), evaluated on day 60): 245 % of control
- T/C (T/C endpoint: median survival time, dose: 39.0 mg/kg/injection, schedule: Q01DX Z (sc), run until all animals had died): 272 [8 of 10 alive], 275, 300, 320, 365, 388 % of control
- survivor count (T/C endpoint: median survival time, dose: 39.0 mg/kg/injection, schedule: Q08DX003 (ip)): 7 of 8
- survivor count (T/C endpoint: median survival time, dose: 50.0 mg/kg/injection, schedule: Q01DX001 (ip)): 5 of 8
- T/C (T/C endpoint: median survival time, dose: 50.0 mg/kg/injection, schedule: Q08DX002 (sc), evaluated on day 7): 117 % of control
- T/C (T/C endpoint: median survival time, dose: 50.0 mg/kg/injection, schedule: Q08DX002 (sc), evaluated on day 34): 115 % of control
- T/C (T/C endpoint: median survival time, dose: 65.0 mg/kg/injection, schedule: Q01DX001 (sc), evaluated on day 7): 151 % of control
- T/C (T/C endpoint: median survival time, dose: 65.0 mg/kg/injection, schedule: Q01DX001 (sc), evaluated on day 35): 155 % of control
- survivor count (T/C endpoint: median survival time, dose: 65.0 mg/kg/injection, schedule: Q01DX001 (sc)): 3 of 8
- T/C (T/C endpoint: median survival time, dose: 65.0 mg/kg/injection, schedule: Q01DX Z (sc), evaluated on day 34): 275 and 300 % of control
- T/C (T/C endpoint: median survival time, dose: 65.0 mg/kg/injection, schedule: Q01DX Z (sc), evaluated on day 36): 195 % of control
- T/C (T/C endpoint: median survival time, dose: 65.0 mg/kg/injection, schedule: Q01DX Z (sc), evaluated on day 40): 205 % of control
- T/C (T/C endpoint: median survival time, dose: 65.0 mg/kg/injection, schedule: Q01DX Z (sc), evaluated on day 60): 286 % of control
- T/C (T/C endpoint: median survival time, dose: 65.0 mg/kg/injection, schedule: Q01DX Z (sc), run until all animals had died): 205, 255, 261 [9 of 10 alive], 272, 300, 305 % of control
- survivor count (T/C endpoint: median survival time, dose: 65.0 mg/kg/injection, schedule: Q01HX002 (ip)): 8 of 8
- T/C (T/C endpoint: median survival time, dose: 65.0 mg/kg/injection, schedule: Q07DX003 (sc), evaluated on day 6): 186 % of control
- T/C (T/C endpoint: median survival time, dose: 65.0 mg/kg/injection, schedule: Q07DX003 (sc), evaluated on day 7): 101, 152, 172, 187 % of control
- T/C (T/C endpoint: median survival time, dose: 65.0 mg/kg/injection, schedule: Q07DX003 (sc), evaluated on day 30): 172 and 184 % of control
- T/C (T/C endpoint: median survival time, dose: 65.0 mg/kg/injection, schedule: Q07DX003 (sc), evaluated on day 33): 165 % of control
- T/C (T/C endpoint: median survival time, dose: 65.0 mg/kg/injection, schedule: Q07DX003 (sc), evaluated on day 35): 155 % of control
- survivor count (T/C endpoint: median survival time, dose: 65.0 mg/kg/injection, schedule: Q08DX003 (ip)): 8 of 8
- T/C (T/C endpoint: median survival time, dose: 100.0 mg/kg/injection, schedule: Q01DX001 (sc), evaluated on day 7): 98, 150, 168, 172, 173 (3×), 175, 177 % of control
- T/C (T/C endpoint: median survival time, dose: 100.0 mg/kg/injection, schedule: Q01DX001 (sc), evaluated on day 9): 161 % of control
- T/C (T/C endpoint: median survival time, dose: 100.0 mg/kg/injection, schedule: Q01DX001 (sc), evaluated on day 21): 180 % of control
- T/C (T/C endpoint: median survival time, dose: 100.0 mg/kg/injection, schedule: Q01DX001 (sc), evaluated on day 34): 100 % of control
- T/C (T/C endpoint: median survival time, dose: 100.0 mg/kg/injection, schedule: Q01DX001 (sc), evaluated on day 36): 177 % of control
- T/C (T/C endpoint: median survival time, dose: 100.0 mg/kg/injection, schedule: Q01DX001 (sc), evaluated on day 37): 177 % of control
- T/C (T/C endpoint: median survival time, dose: 100.0 mg/kg/injection, schedule: Q01DX001 (sc), evaluated on day 40): 166 % of control
- T/C (T/C endpoint: median survival time, dose: 100.0 mg/kg/injection, schedule: Q01DX001 (sc), evaluated on day 43): 173 and 177 % of control
- T/C (T/C endpoint: median survival time, dose: 100.0 mg/kg/injection, schedule: Q01DX001 (sc), evaluated on day 60): 160 and 177 % of control
- T/C (T/C endpoint: median survival time, dose: 100.0 mg/kg/injection, schedule: Q01DX001 (sc), run until all animals had died): 154 % of control
- T/C (T/C endpoint: median survival time, dose: 100.0 mg/kg/injection, schedule: Q08DX002 (sc), evaluated on day 7): 173, 218, 228, 232 % of control
- T/C (T/C endpoint: median survival time, dose: 100.0 mg/kg/injection, schedule: Q08DX002 (sc), evaluated on day 21): 170 % of control
- T/C (T/C endpoint: median survival time, dose: 100.0 mg/kg/injection, schedule: Q08DX002 (sc), evaluated on day 36): 222 % of control
- T/C (T/C endpoint: median survival time, dose: 100.0 mg/kg/injection, schedule: Q08DX002 (sc), evaluated on day 37): 233 % of control
- T/C (T/C endpoint: median survival time, dose: 100.0 mg/kg/injection, schedule: Q08DX002 (sc), evaluated on day 43): 233 % of control
- T/C (T/C endpoint: median survival time, dose: 100.0 mg/kg/injection, schedule: Q08DX003 (sc), evaluated on day 7): 102, 156, 180, 197 % of control
- T/C (T/C endpoint: median survival time, dose: 100.0 mg/kg/injection, schedule: Q08DX003 (sc), evaluated on day 32): 195 % of control
- T/C (T/C endpoint: median survival time, dose: 100.0 mg/kg/injection, schedule: Q08DX003 (sc), evaluated on day 34): 100 % of control
- T/C (T/C endpoint: median survival time, dose: 100.0 mg/kg/injection, schedule: Q08DX003 (sc), evaluated on day 42): 177 % of control
- T/C (T/C endpoint: median survival time, dose: 100.0 mg/kg/injection, schedule: Q08DX003 (sc), evaluated on day 43): 156 % of control [7 of 8 alive]
- T/C (T/C endpoint: median survival time, dose: 108.0 mg/kg/injection, schedule: Q01DX001 (sc), evaluated on day 6): 166 % of control
- T/C (T/C endpoint: median survival time, dose: 108.0 mg/kg/injection, schedule: Q01DX001 (sc), evaluated on day 7): 160, 169, 172, 179, 180, 186 % of control
- T/C (T/C endpoint: median survival time, dose: 108.0 mg/kg/injection, schedule: Q01DX001 (sc), evaluated on day 30): 160, 168, 186 % of control
- T/C (T/C endpoint: median survival time, dose: 108.0 mg/kg/injection, schedule: Q01DX001 (sc), evaluated on day 32): 172 and 173 % of control
- T/C (T/C endpoint: median survival time, dose: 108.0 mg/kg/injection, schedule: Q01DX001 (sc), evaluated on day 33): 165 and 188 % of control
- T/C (T/C endpoint: median survival time, dose: 108.0 mg/kg/injection, schedule: Q01DX001 (sc), evaluated on day 35): 188 % of control
- T/C (T/C endpoint: median survival time, dose: 108.0 mg/kg/injection, schedule: Q01DX001 (sc), evaluated on day 36): 166 % of control
- T/C (T/C endpoint: median survival time, dose: 108.0 mg/kg/injection, schedule: Q01DX001 (sc), evaluated on day 40): 185 % of control
